According to publication PMC7969980:
Results are given in words; binding and its absence hold for the method and conditions named. In cells and extracts the contact can be indirect. Some entries that bind do so weakly or less than the wild type.

Chains of the proteins cited; added tags and fusions are not shown.
UniProt Q96PU5: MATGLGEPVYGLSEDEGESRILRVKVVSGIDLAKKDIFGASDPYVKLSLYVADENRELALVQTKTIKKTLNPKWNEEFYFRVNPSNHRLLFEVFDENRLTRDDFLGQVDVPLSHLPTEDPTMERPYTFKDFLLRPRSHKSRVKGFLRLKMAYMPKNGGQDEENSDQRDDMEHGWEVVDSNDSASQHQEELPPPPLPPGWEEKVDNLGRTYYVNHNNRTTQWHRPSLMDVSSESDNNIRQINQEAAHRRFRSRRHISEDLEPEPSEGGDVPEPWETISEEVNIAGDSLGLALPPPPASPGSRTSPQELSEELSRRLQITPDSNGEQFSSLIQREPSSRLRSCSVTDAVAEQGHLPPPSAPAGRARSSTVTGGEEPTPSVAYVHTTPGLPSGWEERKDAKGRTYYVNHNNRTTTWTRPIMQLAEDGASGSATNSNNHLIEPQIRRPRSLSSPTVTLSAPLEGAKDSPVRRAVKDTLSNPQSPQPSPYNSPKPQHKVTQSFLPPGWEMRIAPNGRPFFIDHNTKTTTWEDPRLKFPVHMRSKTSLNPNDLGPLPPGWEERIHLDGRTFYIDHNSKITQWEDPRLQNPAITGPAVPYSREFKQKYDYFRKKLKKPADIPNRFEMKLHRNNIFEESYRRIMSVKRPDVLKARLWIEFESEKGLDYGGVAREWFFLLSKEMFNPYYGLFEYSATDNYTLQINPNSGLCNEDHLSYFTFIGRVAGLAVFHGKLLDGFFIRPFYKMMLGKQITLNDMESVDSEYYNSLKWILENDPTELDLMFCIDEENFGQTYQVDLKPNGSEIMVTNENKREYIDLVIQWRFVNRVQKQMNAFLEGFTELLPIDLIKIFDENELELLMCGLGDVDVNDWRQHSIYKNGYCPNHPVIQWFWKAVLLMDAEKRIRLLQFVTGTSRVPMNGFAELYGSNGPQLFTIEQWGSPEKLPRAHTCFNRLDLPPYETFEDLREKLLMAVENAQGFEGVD
UniProt P01106: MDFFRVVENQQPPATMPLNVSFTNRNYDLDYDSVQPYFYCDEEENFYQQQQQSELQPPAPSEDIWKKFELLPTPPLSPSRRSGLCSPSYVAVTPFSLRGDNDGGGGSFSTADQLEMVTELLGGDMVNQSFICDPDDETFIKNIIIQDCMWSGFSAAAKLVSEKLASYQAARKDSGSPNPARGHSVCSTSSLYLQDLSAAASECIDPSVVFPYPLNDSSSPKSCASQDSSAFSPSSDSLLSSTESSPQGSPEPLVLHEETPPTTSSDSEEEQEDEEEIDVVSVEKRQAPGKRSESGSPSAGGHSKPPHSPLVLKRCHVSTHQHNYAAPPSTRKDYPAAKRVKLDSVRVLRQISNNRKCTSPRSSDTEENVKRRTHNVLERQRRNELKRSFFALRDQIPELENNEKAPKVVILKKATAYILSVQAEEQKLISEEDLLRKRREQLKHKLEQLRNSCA

Biological target: NEDD4L (human (endogenous in A549)) (UniProt Q96PU5)
Assay: co-IP; fresh whole cell lysate of A549 cells in Tween-20 Co-IP buffer; immunoprecipitated with anti-NEDD4L, anti-c-Myc or control IgG and protein A/G-agarose beads overnight at 4°C; western blot

- binding: binds
Substance: c-Myc (from UniProt P01106 1-454)
